From the supplement of paper PMC10849652
The other results are listed elsewhere or left out.

The chains behind the UniProt entries cited, without tags or fusion partners. Where a name states a change or a piece, a line headed by the entry shows the natural chain unless it says otherwise.
UniProt Q9NSG2: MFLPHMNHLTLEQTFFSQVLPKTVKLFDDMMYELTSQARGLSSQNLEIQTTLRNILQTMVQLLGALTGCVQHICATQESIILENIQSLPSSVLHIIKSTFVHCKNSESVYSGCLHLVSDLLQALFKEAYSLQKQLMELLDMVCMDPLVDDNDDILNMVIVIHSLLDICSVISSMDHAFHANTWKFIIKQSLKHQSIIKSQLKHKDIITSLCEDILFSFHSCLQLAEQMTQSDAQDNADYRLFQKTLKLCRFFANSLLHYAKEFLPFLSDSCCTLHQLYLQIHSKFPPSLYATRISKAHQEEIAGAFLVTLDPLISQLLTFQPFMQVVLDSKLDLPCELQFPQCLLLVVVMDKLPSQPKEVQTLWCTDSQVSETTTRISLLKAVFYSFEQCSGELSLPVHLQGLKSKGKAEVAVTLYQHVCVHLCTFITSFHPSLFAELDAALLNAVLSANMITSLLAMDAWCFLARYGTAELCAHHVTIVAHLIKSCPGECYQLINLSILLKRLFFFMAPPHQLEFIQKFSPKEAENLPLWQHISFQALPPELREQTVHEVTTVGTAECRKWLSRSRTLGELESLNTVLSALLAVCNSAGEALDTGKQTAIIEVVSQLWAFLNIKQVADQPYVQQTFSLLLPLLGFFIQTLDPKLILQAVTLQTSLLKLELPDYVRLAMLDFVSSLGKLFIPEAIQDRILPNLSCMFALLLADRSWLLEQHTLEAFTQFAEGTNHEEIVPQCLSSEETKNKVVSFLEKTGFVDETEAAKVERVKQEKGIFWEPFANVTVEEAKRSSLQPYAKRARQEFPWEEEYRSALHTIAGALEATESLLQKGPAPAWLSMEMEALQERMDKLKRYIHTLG
UniProt Q9Y6E2: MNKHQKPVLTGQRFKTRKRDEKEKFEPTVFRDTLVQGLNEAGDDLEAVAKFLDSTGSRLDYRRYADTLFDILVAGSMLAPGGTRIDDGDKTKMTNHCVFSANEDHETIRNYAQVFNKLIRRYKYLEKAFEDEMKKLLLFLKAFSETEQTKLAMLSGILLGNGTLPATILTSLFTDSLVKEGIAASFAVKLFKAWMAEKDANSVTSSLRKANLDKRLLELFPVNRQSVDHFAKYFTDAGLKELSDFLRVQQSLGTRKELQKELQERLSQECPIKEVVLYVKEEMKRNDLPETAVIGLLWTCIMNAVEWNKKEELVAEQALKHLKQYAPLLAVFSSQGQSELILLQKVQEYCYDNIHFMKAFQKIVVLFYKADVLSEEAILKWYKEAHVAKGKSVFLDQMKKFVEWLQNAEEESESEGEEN
UniProt Q8WUR7: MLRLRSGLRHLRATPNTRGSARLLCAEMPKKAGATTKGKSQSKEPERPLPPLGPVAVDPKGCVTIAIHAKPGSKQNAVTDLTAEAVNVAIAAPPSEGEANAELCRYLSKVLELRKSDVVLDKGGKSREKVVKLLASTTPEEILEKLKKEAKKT
UniProt Q8TCD1: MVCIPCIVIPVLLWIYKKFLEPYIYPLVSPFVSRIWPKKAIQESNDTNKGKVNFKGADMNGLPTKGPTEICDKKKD
UniProt Q9H7E9: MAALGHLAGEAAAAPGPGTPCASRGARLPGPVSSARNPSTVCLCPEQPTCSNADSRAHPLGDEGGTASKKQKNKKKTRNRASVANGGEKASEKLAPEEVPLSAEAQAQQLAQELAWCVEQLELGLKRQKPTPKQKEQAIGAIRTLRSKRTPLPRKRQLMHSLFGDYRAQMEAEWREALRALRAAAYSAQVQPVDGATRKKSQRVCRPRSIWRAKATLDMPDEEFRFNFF
UniProt O43684, whole entry, looked up: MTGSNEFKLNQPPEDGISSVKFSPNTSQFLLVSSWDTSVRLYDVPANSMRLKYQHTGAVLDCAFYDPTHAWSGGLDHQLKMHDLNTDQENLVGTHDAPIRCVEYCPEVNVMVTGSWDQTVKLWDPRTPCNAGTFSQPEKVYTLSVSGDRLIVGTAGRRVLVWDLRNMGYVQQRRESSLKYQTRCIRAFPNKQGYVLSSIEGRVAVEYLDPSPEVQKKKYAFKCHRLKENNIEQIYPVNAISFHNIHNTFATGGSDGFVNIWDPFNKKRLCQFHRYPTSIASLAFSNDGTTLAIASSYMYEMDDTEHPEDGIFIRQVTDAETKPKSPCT
UniProt Q14444, whole entry, looked up: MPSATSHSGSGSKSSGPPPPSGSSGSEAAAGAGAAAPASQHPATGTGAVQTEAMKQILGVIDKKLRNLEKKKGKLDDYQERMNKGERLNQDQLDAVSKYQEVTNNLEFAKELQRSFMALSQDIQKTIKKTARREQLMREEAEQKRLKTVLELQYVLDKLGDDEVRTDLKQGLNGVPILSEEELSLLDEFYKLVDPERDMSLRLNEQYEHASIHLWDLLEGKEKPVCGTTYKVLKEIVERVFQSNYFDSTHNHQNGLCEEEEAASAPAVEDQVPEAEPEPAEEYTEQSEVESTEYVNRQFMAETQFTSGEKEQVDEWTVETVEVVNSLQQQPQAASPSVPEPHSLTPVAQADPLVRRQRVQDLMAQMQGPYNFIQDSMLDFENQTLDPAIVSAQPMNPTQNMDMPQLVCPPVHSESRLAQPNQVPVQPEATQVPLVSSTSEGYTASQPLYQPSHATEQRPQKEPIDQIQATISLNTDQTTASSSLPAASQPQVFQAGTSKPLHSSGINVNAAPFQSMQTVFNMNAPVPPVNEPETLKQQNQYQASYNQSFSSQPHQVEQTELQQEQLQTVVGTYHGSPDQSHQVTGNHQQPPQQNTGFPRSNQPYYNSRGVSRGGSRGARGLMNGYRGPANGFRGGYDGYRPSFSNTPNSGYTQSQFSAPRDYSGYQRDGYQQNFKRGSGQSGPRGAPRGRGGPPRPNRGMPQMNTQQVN
UniProt Q9P1Z2: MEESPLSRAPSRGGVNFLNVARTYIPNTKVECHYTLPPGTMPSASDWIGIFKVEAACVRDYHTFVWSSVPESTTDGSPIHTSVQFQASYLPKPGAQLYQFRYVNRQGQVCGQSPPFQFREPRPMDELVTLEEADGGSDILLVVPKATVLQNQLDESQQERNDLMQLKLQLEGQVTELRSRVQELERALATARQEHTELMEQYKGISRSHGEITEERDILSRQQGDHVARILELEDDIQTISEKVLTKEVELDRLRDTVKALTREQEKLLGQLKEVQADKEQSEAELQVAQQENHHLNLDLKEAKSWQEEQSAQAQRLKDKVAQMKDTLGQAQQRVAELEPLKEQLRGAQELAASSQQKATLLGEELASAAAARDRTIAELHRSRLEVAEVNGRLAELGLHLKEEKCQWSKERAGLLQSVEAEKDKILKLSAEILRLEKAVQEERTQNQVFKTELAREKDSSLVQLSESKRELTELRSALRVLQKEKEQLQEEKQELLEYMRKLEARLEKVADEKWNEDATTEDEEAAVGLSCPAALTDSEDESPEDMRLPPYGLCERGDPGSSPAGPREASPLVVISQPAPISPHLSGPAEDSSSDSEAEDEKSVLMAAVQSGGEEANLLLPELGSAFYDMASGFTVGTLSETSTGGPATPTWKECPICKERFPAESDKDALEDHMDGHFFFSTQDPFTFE
UniProt Q9Y6J0: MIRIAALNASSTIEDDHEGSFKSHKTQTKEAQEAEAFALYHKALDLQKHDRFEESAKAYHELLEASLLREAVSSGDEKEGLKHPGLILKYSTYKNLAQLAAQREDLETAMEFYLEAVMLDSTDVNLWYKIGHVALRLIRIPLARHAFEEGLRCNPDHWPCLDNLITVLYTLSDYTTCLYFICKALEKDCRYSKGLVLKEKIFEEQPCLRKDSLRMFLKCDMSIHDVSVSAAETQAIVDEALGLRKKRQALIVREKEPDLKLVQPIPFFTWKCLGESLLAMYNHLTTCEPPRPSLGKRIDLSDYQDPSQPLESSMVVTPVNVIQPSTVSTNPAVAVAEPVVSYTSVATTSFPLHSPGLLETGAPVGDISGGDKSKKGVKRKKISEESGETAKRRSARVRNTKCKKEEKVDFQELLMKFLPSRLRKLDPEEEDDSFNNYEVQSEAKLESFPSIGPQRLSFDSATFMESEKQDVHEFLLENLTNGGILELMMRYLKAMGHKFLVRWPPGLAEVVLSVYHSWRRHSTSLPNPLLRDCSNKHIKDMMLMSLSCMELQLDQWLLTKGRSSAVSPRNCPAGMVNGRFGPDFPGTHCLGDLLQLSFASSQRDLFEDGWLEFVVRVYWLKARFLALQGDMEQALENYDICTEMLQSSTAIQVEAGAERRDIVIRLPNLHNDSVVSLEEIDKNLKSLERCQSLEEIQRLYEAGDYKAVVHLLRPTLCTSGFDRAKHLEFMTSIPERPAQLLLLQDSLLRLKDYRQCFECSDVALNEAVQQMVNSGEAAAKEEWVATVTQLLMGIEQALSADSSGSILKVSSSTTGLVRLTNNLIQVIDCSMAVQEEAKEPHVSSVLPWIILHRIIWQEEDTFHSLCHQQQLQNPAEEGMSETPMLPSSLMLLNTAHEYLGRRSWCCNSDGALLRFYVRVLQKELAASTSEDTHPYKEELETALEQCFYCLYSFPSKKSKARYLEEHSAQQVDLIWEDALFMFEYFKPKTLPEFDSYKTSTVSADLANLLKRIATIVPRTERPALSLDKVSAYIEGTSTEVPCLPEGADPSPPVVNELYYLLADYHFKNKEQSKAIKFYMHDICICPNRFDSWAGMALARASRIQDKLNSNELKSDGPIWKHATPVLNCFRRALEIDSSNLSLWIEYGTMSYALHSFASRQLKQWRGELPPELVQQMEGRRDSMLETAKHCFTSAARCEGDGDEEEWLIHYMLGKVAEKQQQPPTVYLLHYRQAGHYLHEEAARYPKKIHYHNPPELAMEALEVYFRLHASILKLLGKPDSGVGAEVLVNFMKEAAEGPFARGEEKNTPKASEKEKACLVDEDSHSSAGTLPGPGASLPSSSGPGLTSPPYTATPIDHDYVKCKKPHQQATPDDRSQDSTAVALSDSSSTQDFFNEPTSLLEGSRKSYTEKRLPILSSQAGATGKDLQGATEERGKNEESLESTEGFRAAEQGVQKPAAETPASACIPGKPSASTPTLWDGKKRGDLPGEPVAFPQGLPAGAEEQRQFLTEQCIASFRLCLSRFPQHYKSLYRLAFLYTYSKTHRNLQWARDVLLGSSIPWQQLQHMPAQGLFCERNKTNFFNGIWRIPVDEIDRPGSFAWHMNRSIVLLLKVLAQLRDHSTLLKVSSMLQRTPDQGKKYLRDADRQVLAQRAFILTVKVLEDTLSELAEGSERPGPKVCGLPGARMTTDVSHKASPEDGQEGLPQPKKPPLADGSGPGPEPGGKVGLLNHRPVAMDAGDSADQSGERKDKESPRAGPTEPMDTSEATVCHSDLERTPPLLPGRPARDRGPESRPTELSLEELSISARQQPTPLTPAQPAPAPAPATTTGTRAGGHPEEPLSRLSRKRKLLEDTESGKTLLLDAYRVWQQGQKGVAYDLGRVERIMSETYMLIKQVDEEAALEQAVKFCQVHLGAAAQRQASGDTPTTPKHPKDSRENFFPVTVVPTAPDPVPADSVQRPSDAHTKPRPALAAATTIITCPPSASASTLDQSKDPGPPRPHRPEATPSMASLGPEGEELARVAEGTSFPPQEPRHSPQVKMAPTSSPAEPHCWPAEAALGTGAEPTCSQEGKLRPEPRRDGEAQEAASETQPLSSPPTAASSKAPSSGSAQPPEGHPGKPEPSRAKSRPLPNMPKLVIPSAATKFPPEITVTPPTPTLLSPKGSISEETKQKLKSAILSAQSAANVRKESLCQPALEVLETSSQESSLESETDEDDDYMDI
UniProt P17655: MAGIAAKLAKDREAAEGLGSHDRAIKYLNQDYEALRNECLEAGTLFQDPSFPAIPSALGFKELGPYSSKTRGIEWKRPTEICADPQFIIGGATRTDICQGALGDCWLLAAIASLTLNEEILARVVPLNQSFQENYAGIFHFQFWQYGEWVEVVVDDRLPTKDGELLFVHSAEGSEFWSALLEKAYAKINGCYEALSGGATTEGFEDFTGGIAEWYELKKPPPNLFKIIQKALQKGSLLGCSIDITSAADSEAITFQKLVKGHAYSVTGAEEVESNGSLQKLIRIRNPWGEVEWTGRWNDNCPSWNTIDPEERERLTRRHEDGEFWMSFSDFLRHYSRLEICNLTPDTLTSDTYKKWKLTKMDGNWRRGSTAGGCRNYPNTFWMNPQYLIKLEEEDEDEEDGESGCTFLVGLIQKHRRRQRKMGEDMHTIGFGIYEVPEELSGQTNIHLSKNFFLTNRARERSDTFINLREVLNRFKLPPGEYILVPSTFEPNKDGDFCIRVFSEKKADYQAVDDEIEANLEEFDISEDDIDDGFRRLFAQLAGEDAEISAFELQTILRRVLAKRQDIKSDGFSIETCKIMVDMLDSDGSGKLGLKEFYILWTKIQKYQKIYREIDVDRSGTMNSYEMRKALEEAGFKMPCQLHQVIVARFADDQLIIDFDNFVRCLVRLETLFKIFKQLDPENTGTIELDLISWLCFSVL

Legend:
Assay in all cases: log2 fold change, soluble protein after heating vs DMSO (PISA); higher = thermal stabilisation; K562 lysate, 10 uM; active = over 0.2 and 3.5 SD of the protein, either way, in both replicates (recomputed)
[1] = compound: CN1CC[C@H](c2c(O)cc(O)c3c(=O)cc(-c4ccccc4Cl)oc23)[C@H](O)C1 [alvocidib]
Method in brief: (§1)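 Thermal stability, expressed as log-two fold change relative to solvent controls, is given from duplicates. Crude K562 extract in PBS pH 7.4 with 1 mM MgCl2, at 1 mg/mL protein, was treated with 10 μM compound for 30 min and heated in aliquots for 3 min across 48°C-58°C. After pooling, adjustment to 0.5% NP-40 at 4°C and centrifugation at 21,000xg for 90 min, supernatant protein was measured by TMTpro 16plex LC-MS/MS with channel sums equalised.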

[2] = compound: CN1CCc2c(c3ccccc3n2Cc2ccc(C(=O)NO)cc2)C1 [Tubastatin A]
Method in brief: as §1

[3] = compound: CNC(=O)C1=CC=CC=C1NC2=NC(=NC=C2Cl)NC3=C(C=C(C=C3)N4CCOCC4)OC
Method in brief: as §1

[4] = compound: CNC(=O)c1ccc(Nc2ncc(C(F)(F)F)c(NCc3nccnc3N(C)S(C)(=O)=O)n2)cc1 [defactinib]
Method in brief: as §1

[5] = compound: CNc1nc(-c2ccc3c(N)n[nH]c3c2)cc(N2C[C@@H](C(=O)NC3CCCCC3)CC[C@H]2C)n1
Method in brief: as §1

[6] = compound: COC(=O)N[C@@H](C)CNc1nccc(-c2cn(C(C)C)nc2-c2cc(Cl)cc(NS(C)(=O)=O)c2F)n1 [encorafenib]
Method in brief: as §1

[7] = compound: COC(=O)[C@H](CCSC)NC(=O)C1=C(C=C(C=C1)NC[C@H](CS)N)C2=CC=CC=C2
Method in brief: as §1

[8] = compound: COc1cc(Nc2ncc3c(n2)-c2ccc(Cl)cc2C(c2c(F)cccc2OC)=NC3)ccc1C(=O)O [alisertib]
Method in brief: as §1

[9] = compound: COc1cc2nc(-c3cc(F)ccc3O)nc(N[C@@H]3CNC[C@H]3C(C)(C)O)c2cc1OC
Method in brief: as §1

[10] = compound: COc1cc2ncnc(Nc3ccc(F)c(Cl)c3)c2cc1OCCCN1CCOCC1 [gefitinib]
Method in brief: as §1

[11] = compound: CS(=O)(=O)CCNCc1ccc(-c2ccc3ncnc(Nc4ccc(OCc5cccc(F)c5)c(Cl)c4)c3c2)o1 [lapatinib]
Method in brief: as §1

[12] = compound: CS(=O)(=O)N1CCN(Cc2cc3nc(-c4cccc5[nH]ncc45)nc(N4CCOCC4)c3s2)CC1 [pictilisib]
Method in brief: as §1

[13] = compound: C[C@@H](Oc1cc(-c2cnn(C3CCNCC3)c2)cnc1N)c1c(Cl)ccc(F)c1Cl [crizotinib]
Method in brief: as §1

[14] = compound: C[C@H](C1=CC=C(C=C1)C(=O)NC2=C3C=CNC3=NC=C2)N
Method in brief: as §1

[15] = compound: C[C@H](Nc1ncnc2nc[nH]c12)c1cc2cccc(Cl)c2c(=O)n1-c1ccccc1 [duvelisib]
Method in brief: as §1

[16] = compound: Cc1cc(Nc2cc(CN3CCOCC3)c3nc(C)c(Cc4ccc(Cl)cc4F)n3n2)n[nH]1 [gandotinib]
Method in brief: as §1

[17] = compound: Cc1cc(Nc2cc(N3CCN(C)CC3)nc(Sc3ccc(NC(=O)C4CC4)cc3)n2)n[nH]1 [tozasertib]
Method in brief: as §1

[18] = compound: Cc1ccc(-n2nc(C(C)(C)C)cc2NC(=O)Nc2ccc(OCCN3CCOCC3)c3ccccc23)cc1 [doramapimod]
Method in brief: as §1

[19] = compound: Cc1ccc(NC(=O)c2ccc(CN3CC[C@H](N(C)C)C3)c(C(F)(F)F)c2)cc1Nc1nccc(-c2cncnc2)n1 [bafetinib]
Method in brief: as §1

[20] = compound: Cc1cccc(CC(=O)N2CCc3c2ccc(-c2cn(C)c4ncnc(N)c24)c3F)n1
Method in brief: as §1

Measured: log2 fold change

CAD (UniProt P27708)
inactive: [1] 0 | [2] -0.063 | [3] 0.01 | [4] -0.022 | [5] -0.008 | [6] 0.001 | [7] 0.067 | [8] -0.007 | [9] -0.015 | [10] -0.032 | [11] -0.023 | [12] -0.02 | [13] -0.038 | [14] -0.024 | [15] -0.011 | [16] -0.019 | [17] 0 | [18] 0.02 | [19] -0.052 | [20] 0.07

C1orf112 (UniProt Q9NSG2)
inactive: [1] -0.247 | [2] -0.181 | [3] 0.077 | [4] 0.038 | [5] -0.082 | [6] 0.037 | [7] 0.096 | [8] -0.032 | [9] -0.046 | [10] -0.004 | [11] 0.018 | [12] -0.004 | [13] -0.055 | [14] -0.073 | [15] -0.035 | [16] 0.232 | [17] -0.091 | [18] 0.021 | [19] 0.005
active: [20] 0.279

BZW2 (UniProt Q9Y6E2)
inactive: [1] 0.049 | [2] 0.009 | [3] -0.037 | [4] 0.015 | [5] -0.018 | [6] 0.018 | [7] -0.023 | [8] 0.015 | [9] -0.005 | [10] -0.033 | [11] -0.022 | [12] 0.015 | [13] 0.028 | [14] 0.017 | [15] -0.018 | [16] -0.088 | [17] 0.034 | [18] -0.001 | [19] 0.017 | [20] -0.008

Copied from the listing (2 entries):
CAD (UniProt P27708)
inactive: [1] 0 | [2] -0.063 | [3] 0.01 | [4] -0.022 | [5] -0.008 | [6] 0.001 | [7] 0.067 | [8] -0.007 | [9] -0.015 | [10] -0.032 | [11] -0.023 | [12] -0.02 | [13] -0.038 | [14] -0.024 | [15] -0.011 | [16] -0.019 | [17] 0 | [18] 0.02 | [19] -0.052 | [20] 0.07

C1orf112 (UniProt Q9NSG2)
inactive: [1] -0.247 | [2] -0.181 | [3] 0.077 | [4] 0.038 | [5] -0.082 | [6] 0.037 | [7] 0.096 | [8] -0.032 | [9] -0.046 | [10] -0.004 | [11] 0.018 | [12] -0.004 | [13] -0.055 | [14] -0.073 | [15] -0.035 | [16] 0.232 | [17] -0.091 | [18] 0.021 | [19] 0.005
active: [20] 0.279

Continuation:

C15orf40 (UniProt Q8WUR7)
inactive: [1] -0.032 | [2] 0.093 | [3] 0.067 | [4] -0.035 | [5] 0.02 | [6] -0.005 | [7] -0.058 | [8] -0.091 | [9] 0.011 | [10] 0.104 | [11] -0.015 | [12] -0.073 | [13] 0.003 | [14] -0.076 | [15] 0.013 | [16] 0.095 | [17] 0.028 | [18] 0.017 | [19] -0.041 | [20] 0.038

C18orf32 (UniProt Q8TCD1)
inactive: [1] 0.049 | [2] 0.035 | [3] 0.084 | [4] 0.144 | [5] 0 | [6] 0.168 | [7] -0.316 | [8] 0.043 | [9] -0.019 | [10] -0.249 | [11] -0.012 | [12] 0.041 | [13] -0.07 | [14] -0.093 | [15] -0.203 | [16] 0.001 | [17] -0.011 | [18] -0.01 | [19] -0.04 | [20] 0.047

C8orf33 isoform 2 (UniProt Q9H7E9)
inactive: [1] 0.013 | [2] -0.103 | [3] 0.082 | [4] 0.033 | [5] 0.13 | [6] 0.048 | [7] -0.244 | [8] -0.041 | [9] -0.082 | [10] 0.011 | [11] -0.029 | [12] -0.037 | [13] -0.041 | [14] 0.01 | [15] 0.109 | [16] -0.081 | [17] 0.008 | [18] 0.012 | [19] -0.044 | [20] -0.047

BUB3 (UniProt O43684)
inactive: [1] -0.04 | [2] 0.016 | [3] 0 | [4] 0.014 | [5] -0.029 | [6] 0.001 | [7] 0.018 | [8] 0.005 | [9] -0.015 | [10] 0.012 | [11] 0.022 | [12] -0.026 | [13] 0.044 | [14] -0.046 | [15] 0.019 | [16] 0.013 | [17] -0.009 | [18] 0.079 | [19] -0.024 | [20] 0.019

CAPRIN1 (UniProt Q14444)
inactive: [1] 0.04 | [2] 0.054 | [3] -0.002 | [4] -0.004 | [5] 0.061 | [6] -0.024 | [7] 0.001 | [8] 0.013 | [9] -0.015 | [10] -0.012 | [11] -0.013 | [12] -0.006 | [13] 0.054 | [14] 0.084 | [15] -0.029 | [16] -0.026 | [17] -0.051 | [18] -0.017 | [19] 0.098 | [20] -0.096

CALCOCO1 (UniProt Q9P1Z2)
inactive: [1] 0.011 | [2] -0.086 | [3] 0.038 | [4] -0.039 | [5] 0 | [6] 0.144 | [7] 0.026 | [8] -0.01 | [9] -0.011 | [10] 0.088 | [11] -0.007 | [12] 0.021 | [13] -0.044 | [14] -0.028 | [15] 0 | [16] 0.05 | [17] 0.084 | [18] 0.033 | [19] -0.053 | [20] -0.008

C4A (UniProt P0C0L4)
inactive: [1] -0.075 | [2] 0.051 | [3] -0.01 | [4] 0.03 | [5] -0.012 | [6] 0.005 | [7] -0.005 | [9] 0.025 | [11] -0.109 | [12] -0.122 | [13] -0.009 | [14] -0.074 | [15] -0.049 | [16] 0.159 | [17] -0.036 | [18] -0.007 | [19] -0.041 | [20] 0.099

C7orf25 isoform 2 (UniProt Q9BPX7)
inactive: [1] 0.013 | [2] 0.008 | [3] 0.065 | [4] 0.036 | [5] -0.083 | [6] 0.054 | [7] -0.039 | [9] 0.128 | [11] -0.13 | [12] -0.092 | [13] 0.036 | [14] 0.068 | [15] 0.039 | [16] -0.017 | [17] -0.006 | [18] 0.059 | [19] -0.315 | [20] -0.056

CABIN1 (UniProt Q9Y6J0)
inactive: [1] 0.012 | [2] -0.131 | [3] -0.051 | [4] 0.036 | [5] 0.009 | [6] 0.25 | [7] 0.269 | [8] -0.031 | [9] 0.043 | [10] 0.034 | [11] -0.026 | [12] -0.006 | [14] -0.138 | [15] -0.094 | [16] -0.036 | [17] 0.062 | [19] -0.155 | [20] 0.124

C18orf25 isoform 2 (UniProt Q96B23)
inactive: [1] 0.1 | [2] 0.106 | [3] 0.1 | [4] 0.072 | [5] 0.043 | [6] 0.033 | [7] -0.084 | [8] 0.058 | [9] 0.031 | [10] 0.034 | [11] -0.001 | [12] -0.235 | [14] -0.017 | [15] 0.017 | [16] 0.061 | [17] 0.001 | [19] -0.025 | [20] -0.021

CAPN2 (UniProt P17655)
inactive: [1] -0.005 | [2] -0.024 | [3] -0.004 | [4] 0.003 | [5] -0.008 | [6] 0.032 | [7] -0.015 | [8] -0.007 | [9] -0.009 | [10] -0.014 | [11] 0.028 | [12] -0.001 | [13] -0.02 | [14] 0.068 | [15] -0.01 | [16] 0.03 | [17] 0.008 | [18] 0.028 | [19] 0.012 | [20] -0.032

CAND1 (UniProt Q86VP6)
inactive: [1] -0.041 | [2] 0.031 | [3] -0.008 | [4] -0.005 | [5] 0.002 | [6] 0 | [7] -0.04 | [8] -0.015 | [9] 0.015 | [10] -0.013 | [11] -0.008 | [12] 0.016 | [13] -0.001 | [14] -0.099 | [15] 0.029 | [16] 0.052 | [17] -0.012 | [18] 0.009 | [19] 0.007 | [20] 0.036
